## Percent effect of library compounds

Mtb glucose medium: 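Phenotypic screen: M. tuberculosis growth, glucose 7H9 medium, 3 days; the read-out is not stated. Compounds at 50 µM. Higher reads as more growth inhibition (inferred: compounds with an IC50 in retests scored well above the rest). About 69,000 compounds were tested under these conditions; 1.1% (about 760) showed 50% or more at least once.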
Mtb cholesterol medium: 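Whole-cell growth test on Mycobacterium tuberculosis, read after 4 days in a medium based on cholesterol and the lipid DPPC; the read-out is not stated. Compounds at 50 µM. Higher reads as more growth inhibition (inferred: compounds with an IC50 in retests scored well above the rest). Of about 69,000 compounds tested this way, about 370 (0.54%) reached 50% or more in at least one test.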

Results are given as percent effect.
How 0% and 100% were set is not recorded. Most values in the screen are low, and negative values occur.
Compounds were drawn at random from those tested, without regard to their results.
Two or more numbers in one place are separate tests of the same structure; such repeats can differ widely.

| Compound | Mtb glucose medium | Mtb cholesterol medium |
|---|---|---|
| `Cn1nc(C(=O)N2CCOCC2)c2c1CN(CC1CCC1)C2` | -14.35 | -4.212 |
| `COc1nc2c(cc1C(=O)N(C)Cc1[nH]nc3c1CCC3)CCC2` | 0.06411 | -31.86 |
| `[H][C@]12CC[C@](C(=O)N3CCC(n4cc(CCO)nn4)CC3)(C1)C(=C)C2(C)C` | 10.07 | -0.1912 |
| `CCOCc1cnc2n1CCN(C(=O)c1cn(C)c3ccccc13)C2C` (stereo not drawn) | 23.82 | 1.901 |
| `CCOc1ccc(NC(C)=O)cc1S(=O)(=O)Nc1nnc(C)s1` | 11.31 & -3.819 | -5.764 |
| `CC(=O)c1c(C)nn(S(=O)(=O)c2ccc(C)c(C)c2)c1C` | 6.844 | 2.917 |
| `CC(=O)Nc1nc(C(=O)NCCOc2cccc(F)c2)cs1` | 43.03 | 3.913 & 13.34 |
| `Cc1nc2ccc(C(=O)N3CCn4c(C)nnc4C3)cc2nc1C` | -16.28 | 0.2382 |
| `[H][C@@]12CCN(C(C)=O)C[C@]1([H])CCN(C1CC1)C(=O)C2` | -14.79 & 0.7245 | 0.6704 |
| `Cc1cnc(C(C)(C)NC(=O)NCc2cccnc2OC(C)C)s1` | -36.2 | -7.453 |
| `COc1ccc(CN(C)c2nc3c(cnn3C)c(=O)[nH]2)c(OC)c1` | 3.662 | -9.409 |
| `Cc1nc(NCC2CC2)nc2c1COCC21CCN(C(=O)NC(C)C)C1` (stereo not drawn) | -32.61 | -3.769 & -12.95 |
| `O=C(NC1CCC(C(=O)N2CCSCC2)CC1)N1CCC1` (stereo not drawn) | 7.515 & 10.84 | -9.518 |
| `O=C(c1cc(-c2ccco2)cs1)N1CCOCC1` | -0.1406 | 11.06 |
| `CCOC(=O)c1c(NC(=O)CN2CCN(C(C)=O)CC2)sc(C)c1C` | 11.37 | -13.33 |
| `Cc1ccc2c(n1)N(Cc1cccnc1)CCN(C(=O)C1CC1)C2.O=C(O)C(F)(F)F.O=C(O)C(F)(F)F` | 30.43 | -3.803 |
| `COC(=O)c1ccccc1C(=O)N(CCN(C)C)Cc1sccc1C` | -1.856 & -0.3004 | 2.84 & 2.168 |
| `O=C(O)C(F)(F)F.[H][C@]12CCC[C@@H](CN(C)C)[C@@]1([H])CN(c1ncccn1)C2` | -4.266 | 0.4325 |
| `CC(C)(C)NC(=O)Cn1cc(C(N)=O)c(-c2ccccc2)n1` | 29.65 | 7.396 |
| `CN(C)CC1CSCCCN1C(=O)c1cccc(C(F)(F)F)c1` (stereo not drawn) | -0.3813 | -20.61 |
| `CC(NC(=O)C1=NN(C)C(=O)CC1)c1ccccc1Cl` (stereo not drawn) | 3.826 | -11.45 |
| `CNC(=O)C1(CCCc2cccnc2)CCCCN1` (stereo not drawn) | 4.298 | -6.016 |
| `CS(=O)(=O)N1CCCC12CCCN(C(=O)c1ccno1)C2` (stereo not drawn) | 18.73 & 25.62 | 0.7095 & -2.663 |
| `COC1CCN(C(=O)Cn2nc(C)cc2C)CC1` | 13.73 | 10.24 |
| `O=C(NC1CCCN(c2ncccn2)C1)c1ccoc1` (stereo not drawn) | 22.84 & -4.441 | -0.5655 |
| `O=C(NCCn1cccc1)C(c1ccccc1)N1CCCC1` (stereo not drawn) | -22.19 | -17.26 |
| `CC(=O)N1Cc2cnc(C(C)(C)C)nc2C1` | 32.96 & -70.59 | -56.67 & -14.98 |
| `CSc1nccn1-c1cccc(C(=O)NCC(F)(F)F)c1` | 0.4215 | -12.79 |
| `O=C(O)C(F)(F)F.[H][C@@]12OCCN(Cc3ccco3)[C@@]1([H])CC[C@@H]2OCC1CC1` | -10.6 | -20.28 |
| `CNC(=O)C1CN(Cc2cc(C)on2)CCN(C(C)=O)C1` (stereo not drawn) | 12.32 | -7.726 |
| `CCCc1nc(C)c(C(=O)NCCNc2ncccn2)s1` | 21.94 | -11.18 |
| `Cc1cnc(CN(C)Cc2cccc(OC(F)(F)F)c2)cn1` | 27.54 | 4.028 |
| `COCC(=O)N1CCCC1c1cccc(C)c1C` (stereo not drawn) | -0.7165 | -3.891 |
| `CCC(Cn1ccnc1)n1cnc2c(C)csc2c1=O` (stereo not drawn) | 7.882 | 6.769 |
| `CNS(=O)(=O)Cc1ccc(CNC(=O)Nc2cn[nH]c2)cc1` | -23.33 | -4.27 |
| `Cn1c(C(=O)NCC2(N)CCCC2)cc2ccccc21` | 15.03 | 6.05 |
| `CC(C)(C)NC(=O)C1CSCN1S(=O)(=O)c1ccc(F)cc1` (stereo not drawn) | -3.985 | -13.71 |
| `O=C1CC2(CCN(C(=O)c3cccc(Cl)c3)CC2)CN1` | 1.864 & 33.67 | 13.94 |
| `CC(C)C(=O)NCC(=O)N(C)C1CCCN(C2Cc3ccccc3C2)C1` (stereo not drawn) | -26.5 | -9.752 |
| `CC(NC(=O)NCc1cccnc1N1CCCCC1)c1nccs1` (stereo not drawn) | -0.9878 | -4.659 |
| `CC(=O)NCCNC(=O)CN1CCCCC1Cn1cncn1` (stereo not drawn) | -18.5 | 9.359 |
| `CC(C)(C)c1ncc2c(n1)CN(C(=O)c1ccc(C#N)nc1)C2` | 6.083 | 2.12 & -17.4 |
| `Cc1cc(C)c(CNc2ncnc3c2cnn3C)c(=O)[nH]1` | 1.232 | 8.249 |
| `CC(C)(C)c1n[nH]c(C2CN(Cc3ncc[nH]3)CCO2)n1` (stereo not drawn) | 2.417 | 0.9837 |
| `CN(C)c1cc(CNC(=O)NCC2(C)CCCS2)ccn1` (stereo not drawn) | -5.953 | -14.03 |
| `CCCc1nnsc1C(=O)NCC(O)c1cccs1` (stereo not drawn) | 2.248 & -45.64 | -6.697 |
| `Cc1cc(CN2Cc3ccccc3CC2c2nnc(C)o2)no1` (stereo not drawn) | -12.77 | -8.483 |
| `O=C(CCc1nccs1)N1CCN(c2ccccn2)CC1` | 37.78 | 23.25 |
| `COCC1c2nnn(CC3CC3)c2CCN1C(=O)c1cc(C)on1` (stereo not drawn) | -0.8376 & -18.55 | 5.094 & -2.077 |
| `O=C(NCC1CC1)C1CSCN1S(=O)(=O)c1ccccc1F` (stereo not drawn) | 23.81 | 7.469 |
| `Cc1cn2nc(N(C)C3CCCN(c4cccnn4)C3)sc2n1` (stereo not drawn) | 11.08 | -6.478 |
| `N#Cc1cccc(N2CCOCC3(CCCN(C(=O)NC4CC4)C3)C2)c1` (stereo not drawn) | -8.083 & 26.37 | -0.9262 |
| `O=C(NCc1nnc2n1CCC2)c1ccc(C2CCCO2)s1` (stereo not drawn) | 15.39 | -11.44 |
| `Cc1cc(C(=O)N(CC(C)C)CC(O)c2ccc(F)cc2)[nH]n1` (stereo not drawn) | -9.875 | -2.229 |
| `Cc1cnc(N)nc1NCCSCc1[nH]cnc1C` | -4.698 | -2.863 |
| `CCCNC(=O)Cn1c(-n2nc(C)cc2C)nc(CCC)cc1=O` | 2.151 | -6.995 |
| `COCCC(=O)N1CC2(CCN(c3ccccc3)C2)C1` | -4.088 & -7.536 | 5.698 |

For reference, 6 entries once more:

Compound,Mtb glucose medium,Mtb cholesterol medium
Cc1cnc(N)nc1NCCSCc1[nH]cnc1C,-4.698,-2.863
O=C(NCc1nnc2n1CCC2)c1ccc(C2CCCO2)s1 (stereo not drawn),15.39,-11.44
Cc1nc2ccc(C(=O)N3CCn4c(C)nnc4C3)cc2nc1C,-16.28,0.2382
O=C(NC1CCCN(c2ncccn2)C1)c1ccoc1 (stereo not drawn),22.84 & -4.441,-0.5655
CCOCc1cnc2n1CCN(C(=O)c1cn(C)c3ccccc13)C2C (stereo not drawn),23.82,1.901
CC(NC(=O)NCc1cccnc1N1CCCCC1)c1nccs1 (stereo not drawn),-0.9878,-4.659

Data taken from ChEMBL document CHEMBL3988442, “University of Dundee, Small-Polar-MMV Screening Library” (2021).